Experimental data as given in the supplement of paper PMC7666118.
Some of the results follow.

Chains of the proteins cited; added tags and fusions are not shown. Lines headed by an entry give the natural chain unless they say otherwise; changes in a name come on top.
UniProt O95319: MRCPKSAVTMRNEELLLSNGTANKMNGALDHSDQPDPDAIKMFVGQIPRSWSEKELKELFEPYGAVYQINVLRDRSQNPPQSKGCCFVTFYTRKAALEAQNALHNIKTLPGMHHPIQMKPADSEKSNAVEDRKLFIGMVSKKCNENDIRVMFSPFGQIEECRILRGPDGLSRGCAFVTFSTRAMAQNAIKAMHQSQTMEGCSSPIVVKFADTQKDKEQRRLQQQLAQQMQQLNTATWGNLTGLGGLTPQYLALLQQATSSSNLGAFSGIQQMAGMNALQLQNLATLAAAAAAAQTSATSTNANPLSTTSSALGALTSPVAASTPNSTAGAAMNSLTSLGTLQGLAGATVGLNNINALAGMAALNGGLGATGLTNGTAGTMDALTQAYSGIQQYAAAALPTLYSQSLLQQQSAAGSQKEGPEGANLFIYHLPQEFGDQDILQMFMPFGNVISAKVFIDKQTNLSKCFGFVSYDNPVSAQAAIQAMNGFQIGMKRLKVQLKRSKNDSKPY
UniProt Q2PZI1: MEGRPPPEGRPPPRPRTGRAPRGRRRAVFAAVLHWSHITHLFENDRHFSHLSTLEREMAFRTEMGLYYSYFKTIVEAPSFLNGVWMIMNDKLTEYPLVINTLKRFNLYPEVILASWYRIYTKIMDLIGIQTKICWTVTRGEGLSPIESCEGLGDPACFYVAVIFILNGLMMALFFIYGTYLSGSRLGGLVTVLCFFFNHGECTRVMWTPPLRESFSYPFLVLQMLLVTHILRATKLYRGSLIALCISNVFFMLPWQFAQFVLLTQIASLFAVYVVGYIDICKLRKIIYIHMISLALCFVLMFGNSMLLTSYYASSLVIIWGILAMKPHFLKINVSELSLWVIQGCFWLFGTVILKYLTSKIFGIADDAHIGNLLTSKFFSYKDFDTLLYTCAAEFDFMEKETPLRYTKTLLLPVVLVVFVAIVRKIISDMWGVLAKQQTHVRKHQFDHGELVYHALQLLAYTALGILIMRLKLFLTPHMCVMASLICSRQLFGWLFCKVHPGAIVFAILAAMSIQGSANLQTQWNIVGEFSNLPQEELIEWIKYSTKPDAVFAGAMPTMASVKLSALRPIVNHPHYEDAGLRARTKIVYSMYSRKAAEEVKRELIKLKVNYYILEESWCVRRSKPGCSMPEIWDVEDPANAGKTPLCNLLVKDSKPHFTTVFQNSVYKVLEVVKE
UniProt Q9UDY4: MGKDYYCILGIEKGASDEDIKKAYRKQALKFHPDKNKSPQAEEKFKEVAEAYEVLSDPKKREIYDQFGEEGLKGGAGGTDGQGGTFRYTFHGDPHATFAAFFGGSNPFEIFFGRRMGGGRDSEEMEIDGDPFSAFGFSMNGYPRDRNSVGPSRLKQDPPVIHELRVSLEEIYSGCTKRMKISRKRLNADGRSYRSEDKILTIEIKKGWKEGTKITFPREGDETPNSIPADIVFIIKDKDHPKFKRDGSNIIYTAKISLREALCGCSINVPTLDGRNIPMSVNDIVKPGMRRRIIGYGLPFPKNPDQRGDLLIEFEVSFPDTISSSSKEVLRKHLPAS
UniProt Q9Y315: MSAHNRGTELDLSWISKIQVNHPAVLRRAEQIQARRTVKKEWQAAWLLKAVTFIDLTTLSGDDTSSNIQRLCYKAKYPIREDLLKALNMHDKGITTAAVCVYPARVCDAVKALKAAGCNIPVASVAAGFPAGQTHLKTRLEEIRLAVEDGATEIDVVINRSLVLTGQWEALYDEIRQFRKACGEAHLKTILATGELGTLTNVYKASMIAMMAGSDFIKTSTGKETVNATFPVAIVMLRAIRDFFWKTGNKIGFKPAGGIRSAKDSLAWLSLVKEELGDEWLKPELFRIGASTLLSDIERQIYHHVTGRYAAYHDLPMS
UniProt Q7L591: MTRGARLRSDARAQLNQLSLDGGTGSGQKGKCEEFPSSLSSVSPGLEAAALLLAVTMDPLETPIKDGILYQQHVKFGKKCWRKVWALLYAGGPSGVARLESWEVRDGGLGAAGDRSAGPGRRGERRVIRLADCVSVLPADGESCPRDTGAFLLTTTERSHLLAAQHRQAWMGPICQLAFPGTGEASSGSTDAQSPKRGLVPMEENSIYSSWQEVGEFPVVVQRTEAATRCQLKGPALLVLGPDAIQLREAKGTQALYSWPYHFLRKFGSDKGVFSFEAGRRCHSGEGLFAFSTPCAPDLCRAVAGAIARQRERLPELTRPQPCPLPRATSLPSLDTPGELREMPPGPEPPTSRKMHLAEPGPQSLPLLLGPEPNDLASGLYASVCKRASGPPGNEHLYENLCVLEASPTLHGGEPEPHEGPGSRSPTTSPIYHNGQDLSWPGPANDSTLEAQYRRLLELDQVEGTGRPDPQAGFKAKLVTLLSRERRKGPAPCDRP
UniProt O60888: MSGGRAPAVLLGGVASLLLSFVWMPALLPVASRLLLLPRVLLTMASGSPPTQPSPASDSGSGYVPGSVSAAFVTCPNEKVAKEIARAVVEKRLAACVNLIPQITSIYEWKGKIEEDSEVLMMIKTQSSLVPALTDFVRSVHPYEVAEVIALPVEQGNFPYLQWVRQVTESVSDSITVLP
UniProt Q86TI2: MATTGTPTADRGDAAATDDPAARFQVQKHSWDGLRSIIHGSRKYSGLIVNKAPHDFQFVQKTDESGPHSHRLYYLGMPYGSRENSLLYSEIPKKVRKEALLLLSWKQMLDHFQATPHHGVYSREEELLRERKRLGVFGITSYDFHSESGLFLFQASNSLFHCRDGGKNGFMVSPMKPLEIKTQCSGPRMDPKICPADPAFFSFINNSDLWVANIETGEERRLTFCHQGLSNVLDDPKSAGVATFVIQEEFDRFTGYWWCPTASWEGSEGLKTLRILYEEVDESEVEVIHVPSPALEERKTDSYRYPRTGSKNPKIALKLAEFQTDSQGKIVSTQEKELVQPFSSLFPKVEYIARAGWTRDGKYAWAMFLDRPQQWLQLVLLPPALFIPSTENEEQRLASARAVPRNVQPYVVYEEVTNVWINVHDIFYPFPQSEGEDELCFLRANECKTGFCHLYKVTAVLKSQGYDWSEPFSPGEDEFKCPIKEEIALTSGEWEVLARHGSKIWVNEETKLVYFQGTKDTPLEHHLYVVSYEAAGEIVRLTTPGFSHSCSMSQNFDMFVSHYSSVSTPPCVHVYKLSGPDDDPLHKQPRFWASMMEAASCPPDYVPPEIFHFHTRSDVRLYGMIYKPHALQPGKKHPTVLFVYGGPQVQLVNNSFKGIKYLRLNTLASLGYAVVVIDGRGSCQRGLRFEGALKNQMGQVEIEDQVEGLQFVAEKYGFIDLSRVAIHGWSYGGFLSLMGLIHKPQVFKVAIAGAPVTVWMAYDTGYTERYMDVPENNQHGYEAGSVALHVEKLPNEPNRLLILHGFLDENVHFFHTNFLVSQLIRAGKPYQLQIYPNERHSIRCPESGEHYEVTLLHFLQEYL
UniProt Q2TBE0: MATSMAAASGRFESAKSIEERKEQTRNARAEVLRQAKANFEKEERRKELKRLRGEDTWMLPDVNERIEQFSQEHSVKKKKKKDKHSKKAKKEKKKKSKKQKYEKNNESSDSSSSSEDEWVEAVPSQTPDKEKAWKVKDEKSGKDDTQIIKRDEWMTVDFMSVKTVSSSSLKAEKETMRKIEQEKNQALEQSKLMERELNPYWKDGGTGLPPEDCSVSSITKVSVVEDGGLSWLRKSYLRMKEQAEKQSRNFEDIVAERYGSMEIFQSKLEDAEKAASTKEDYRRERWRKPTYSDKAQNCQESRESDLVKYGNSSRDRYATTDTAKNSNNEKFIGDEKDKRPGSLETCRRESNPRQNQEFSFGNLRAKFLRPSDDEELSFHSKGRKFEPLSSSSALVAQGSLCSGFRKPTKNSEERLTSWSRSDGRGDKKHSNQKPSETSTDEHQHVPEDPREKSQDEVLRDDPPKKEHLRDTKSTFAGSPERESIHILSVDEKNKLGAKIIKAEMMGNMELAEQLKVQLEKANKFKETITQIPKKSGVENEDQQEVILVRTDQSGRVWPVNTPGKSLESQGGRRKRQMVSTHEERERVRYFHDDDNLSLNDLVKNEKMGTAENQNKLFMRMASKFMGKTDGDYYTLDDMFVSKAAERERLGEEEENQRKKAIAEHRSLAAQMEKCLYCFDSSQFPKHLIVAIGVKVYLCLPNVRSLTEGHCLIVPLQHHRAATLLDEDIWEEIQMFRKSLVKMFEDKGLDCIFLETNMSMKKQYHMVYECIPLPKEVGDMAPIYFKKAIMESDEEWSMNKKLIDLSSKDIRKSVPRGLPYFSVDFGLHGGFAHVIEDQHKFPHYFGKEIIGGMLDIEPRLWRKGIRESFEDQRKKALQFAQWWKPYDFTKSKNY
UniProt Q8N8Z6: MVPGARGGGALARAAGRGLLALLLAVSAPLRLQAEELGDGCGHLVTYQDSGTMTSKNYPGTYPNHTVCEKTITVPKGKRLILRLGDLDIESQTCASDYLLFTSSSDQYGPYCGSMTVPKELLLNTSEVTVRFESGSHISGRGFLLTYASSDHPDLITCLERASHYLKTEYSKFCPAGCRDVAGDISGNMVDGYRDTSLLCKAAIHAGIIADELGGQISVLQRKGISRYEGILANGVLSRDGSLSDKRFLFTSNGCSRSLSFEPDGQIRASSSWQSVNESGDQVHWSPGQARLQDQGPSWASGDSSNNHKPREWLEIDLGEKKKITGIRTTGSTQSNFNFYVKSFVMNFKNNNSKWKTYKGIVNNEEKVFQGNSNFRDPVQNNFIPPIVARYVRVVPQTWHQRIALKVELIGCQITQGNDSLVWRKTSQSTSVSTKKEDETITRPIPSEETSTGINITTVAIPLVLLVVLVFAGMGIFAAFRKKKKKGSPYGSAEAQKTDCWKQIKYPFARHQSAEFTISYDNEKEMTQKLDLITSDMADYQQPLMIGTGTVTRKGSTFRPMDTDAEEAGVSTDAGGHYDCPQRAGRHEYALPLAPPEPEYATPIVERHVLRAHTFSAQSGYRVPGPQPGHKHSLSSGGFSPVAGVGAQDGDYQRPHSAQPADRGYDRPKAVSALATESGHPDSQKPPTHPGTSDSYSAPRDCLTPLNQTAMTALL
UniProt P00374: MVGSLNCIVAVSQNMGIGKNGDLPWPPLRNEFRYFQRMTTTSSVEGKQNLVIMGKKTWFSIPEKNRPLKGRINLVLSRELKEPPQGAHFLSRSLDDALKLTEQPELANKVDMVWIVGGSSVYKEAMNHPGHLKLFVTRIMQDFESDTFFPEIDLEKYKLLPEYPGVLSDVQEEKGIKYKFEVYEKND
UniProt Q9UJV9: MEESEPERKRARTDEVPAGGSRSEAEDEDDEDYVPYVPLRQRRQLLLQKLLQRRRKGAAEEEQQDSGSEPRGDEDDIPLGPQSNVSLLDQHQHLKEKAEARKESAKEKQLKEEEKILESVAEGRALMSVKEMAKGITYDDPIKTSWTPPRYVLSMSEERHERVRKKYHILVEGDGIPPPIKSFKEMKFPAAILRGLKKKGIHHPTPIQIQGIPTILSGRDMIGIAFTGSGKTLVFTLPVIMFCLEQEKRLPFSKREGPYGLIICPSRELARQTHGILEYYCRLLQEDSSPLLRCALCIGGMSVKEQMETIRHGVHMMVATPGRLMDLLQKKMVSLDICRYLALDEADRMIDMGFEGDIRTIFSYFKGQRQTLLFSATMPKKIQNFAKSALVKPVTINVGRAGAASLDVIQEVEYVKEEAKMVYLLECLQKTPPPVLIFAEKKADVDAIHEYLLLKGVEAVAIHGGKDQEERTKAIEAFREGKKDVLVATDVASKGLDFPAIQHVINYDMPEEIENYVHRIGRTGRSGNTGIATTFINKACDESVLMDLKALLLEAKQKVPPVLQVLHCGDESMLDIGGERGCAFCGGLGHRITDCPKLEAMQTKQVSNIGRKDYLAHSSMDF
UniProt O43143: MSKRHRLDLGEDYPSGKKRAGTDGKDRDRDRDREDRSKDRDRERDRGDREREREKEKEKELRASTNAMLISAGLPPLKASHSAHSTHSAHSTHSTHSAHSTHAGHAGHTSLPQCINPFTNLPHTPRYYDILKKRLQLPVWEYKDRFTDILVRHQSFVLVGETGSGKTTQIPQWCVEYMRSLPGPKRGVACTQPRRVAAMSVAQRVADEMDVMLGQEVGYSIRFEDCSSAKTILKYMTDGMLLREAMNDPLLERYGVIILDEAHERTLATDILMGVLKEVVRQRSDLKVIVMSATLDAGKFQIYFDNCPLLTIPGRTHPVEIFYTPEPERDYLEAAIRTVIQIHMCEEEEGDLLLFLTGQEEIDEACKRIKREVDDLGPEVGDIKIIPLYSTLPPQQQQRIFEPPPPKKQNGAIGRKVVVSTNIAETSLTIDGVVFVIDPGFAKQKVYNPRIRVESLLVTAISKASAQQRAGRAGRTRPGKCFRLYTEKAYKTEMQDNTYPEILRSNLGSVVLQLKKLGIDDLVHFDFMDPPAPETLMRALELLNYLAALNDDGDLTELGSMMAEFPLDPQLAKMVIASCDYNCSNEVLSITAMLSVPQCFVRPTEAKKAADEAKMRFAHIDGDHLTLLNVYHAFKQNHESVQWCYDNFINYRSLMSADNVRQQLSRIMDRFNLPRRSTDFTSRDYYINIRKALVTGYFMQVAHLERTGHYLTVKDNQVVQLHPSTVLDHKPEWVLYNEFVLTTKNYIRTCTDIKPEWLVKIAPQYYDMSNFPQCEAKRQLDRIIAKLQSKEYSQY

What follows are targets tested with COc1ccc(Cn2ccc3cc(C)c(C(=O)NO)cc32)cc1 (assay: dose-dependent thermal stabilisation call (2D-TPP, DLPTP, 10% FDR) (binary (1 = stabilised)); higher = stabilised by the compound). Conditions: system: HL-60 intact cells; concentration range 0.04-10 µM.
Procedure: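 2D thermal proteome profiling in intact HL-60 cells treated with BRD-3811 (0, 0.04, 0.29, 2, 10 uM) for 90 min at 37 C, then heated 3 min at one of 12 temperatures (42-63.9 C). Soluble protein was quantified by TMT10 MS. The value is the DLPTP call of the paper: dose-dependent thermal stabilisation over all temperatures at 10% FDR (F-test of a dose-response against a flat model); one experiment, one call per tested protein.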
For CTSS (UniProt P25774), the “dose-dependent thermal stabilisation call” value was inactive: 0.
DMXL1 (UniProt Q9Y485) was tested, and the “dose-dependent thermal stabilisation call” value was inactive: 0.
In the case of DHX34 (UniProt Q14147), the “dose-dependent thermal stabilisation call” value was inactive: 0.
CUGBP2 (UniProt O95319) was tested, and the “dose-dependent thermal stabilisation call” value was inactive: 0.
With CTR9 (UniProt Q6PD62) the “dose-dependent thermal stabilisation call” value was inactive: 0.
For DPY19L1 (UniProt Q2PZI1), the “dose-dependent thermal stabilisation call” value was inactive: 0.
For CSGALNACT2 (UniProt Q8N6G5), the “dose-dependent thermal stabilisation call” value was inactive: 0.
In the case of DNAJB4 (UniProt Q9UDY4), the “dose-dependent thermal stabilisation call” value was inactive: 0.
In the case of DERA (UniProt Q9Y315), the “dose-dependent thermal stabilisation call” value was inactive: 0.
With DOK3 (UniProt Q7L591) the “dose-dependent thermal stabilisation call” value was inactive: 0.
With CUL3 (UniProt Q13618) the “dose-dependent thermal stabilisation call” value was inactive: 0.
With CUTA (UniProt O60888) the “dose-dependent thermal stabilisation call” value was inactive: 0.
DHDDS (UniProt Q86SQ9) was tested, and the “dose-dependent thermal stabilisation call” value was inactive: 0.
DHX36 (UniProt Q9H2U1) was tested, and the “dose-dependent thermal stabilisation call” value was inactive: 0.
For DDX23 (UniProt Q9BUQ8), the “dose-dependent thermal stabilisation call” value was inactive: 0.
With DPP9 (UniProt Q86TI2) the “dose-dependent thermal stabilisation call” value was inactive: 0.
For CTSB (UniProt P07858), the “dose-dependent thermal stabilisation call” value was inactive: 0.
For CWF19L2 (UniProt Q2TBE0), the “dose-dependent thermal stabilisation call” value was inactive: 0.
In the case of DCBLD1 (UniProt Q8N8Z6), the “dose-dependent thermal stabilisation call” value was inactive: 0.
With DHFR (UniProt P00374) the “dose-dependent thermal stabilisation call” value was inactive: 0.
With DDX41 (UniProt Q9UJV9) the “dose-dependent thermal stabilisation call” value was inactive: 0.
With DNM1 (UniProt Q05193) the “dose-dependent thermal stabilisation call” value was inactive: 0.
With DFFA (UniProt O00273) the “dose-dependent thermal stabilisation call” value was inactive: 0.
For CUL5 (UniProt Q93034), the “dose-dependent thermal stabilisation call” value was inactive: 0.
For CTF8 (UniProt P0CG13), the “dose-dependent thermal stabilisation call” value was inactive: 0.
With CYB5R3 (UniProt P00387) the “dose-dependent thermal stabilisation call” value was active: 1.
For DHX15 (UniProt O43143), the “dose-dependent thermal stabilisation call” value was inactive: 0.
